In publication doi:10.1101/2021.06.23.449546:
These are yes or no findings as the source states them, for the method shown. Binding seen in cells or lysates may run through a third protein. Some binding calls cover weakened binding; strength is not graded here.

Amino acid sequences for entries named in this document (tags omitted).
UniProt P63015: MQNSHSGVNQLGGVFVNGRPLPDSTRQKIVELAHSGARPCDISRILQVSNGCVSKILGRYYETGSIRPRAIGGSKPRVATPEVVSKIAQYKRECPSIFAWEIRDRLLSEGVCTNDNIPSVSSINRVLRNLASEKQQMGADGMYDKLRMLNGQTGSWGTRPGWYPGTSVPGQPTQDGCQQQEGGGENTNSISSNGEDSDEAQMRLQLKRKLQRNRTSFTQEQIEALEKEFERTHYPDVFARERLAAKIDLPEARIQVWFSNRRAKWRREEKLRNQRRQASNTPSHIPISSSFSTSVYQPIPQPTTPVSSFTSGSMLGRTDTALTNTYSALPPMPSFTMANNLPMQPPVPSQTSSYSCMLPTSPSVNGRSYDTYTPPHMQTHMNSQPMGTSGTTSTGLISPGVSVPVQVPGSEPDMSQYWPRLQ
UniProt P97305: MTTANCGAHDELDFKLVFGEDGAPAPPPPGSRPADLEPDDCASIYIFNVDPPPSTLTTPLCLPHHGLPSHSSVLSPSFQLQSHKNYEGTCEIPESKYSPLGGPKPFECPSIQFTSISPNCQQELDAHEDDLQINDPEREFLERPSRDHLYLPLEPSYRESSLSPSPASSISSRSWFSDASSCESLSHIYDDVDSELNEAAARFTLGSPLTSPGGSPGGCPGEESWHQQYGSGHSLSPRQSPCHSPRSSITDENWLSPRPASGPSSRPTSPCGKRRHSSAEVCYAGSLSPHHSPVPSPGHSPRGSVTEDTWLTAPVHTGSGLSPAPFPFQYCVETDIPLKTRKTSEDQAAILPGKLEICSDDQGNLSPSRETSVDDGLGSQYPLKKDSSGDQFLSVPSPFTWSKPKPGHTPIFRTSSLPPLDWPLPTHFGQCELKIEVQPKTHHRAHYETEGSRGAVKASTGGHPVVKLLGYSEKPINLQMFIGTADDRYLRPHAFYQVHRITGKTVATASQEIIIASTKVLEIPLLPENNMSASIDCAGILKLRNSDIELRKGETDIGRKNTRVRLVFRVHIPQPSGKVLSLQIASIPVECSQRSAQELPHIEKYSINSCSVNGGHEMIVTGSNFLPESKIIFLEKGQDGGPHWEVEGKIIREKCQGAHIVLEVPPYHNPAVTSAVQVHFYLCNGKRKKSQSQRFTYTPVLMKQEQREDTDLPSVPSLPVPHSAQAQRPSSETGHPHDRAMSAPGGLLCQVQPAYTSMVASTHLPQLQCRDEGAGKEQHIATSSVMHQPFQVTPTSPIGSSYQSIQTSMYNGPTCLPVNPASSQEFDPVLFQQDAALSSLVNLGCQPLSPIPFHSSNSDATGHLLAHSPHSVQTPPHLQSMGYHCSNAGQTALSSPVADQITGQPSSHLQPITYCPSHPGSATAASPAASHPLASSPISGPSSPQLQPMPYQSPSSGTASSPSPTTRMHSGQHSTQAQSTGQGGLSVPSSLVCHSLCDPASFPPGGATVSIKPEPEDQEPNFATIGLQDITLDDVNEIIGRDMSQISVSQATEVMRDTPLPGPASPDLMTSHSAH

Target: PAX6 (mouse (endogenous in E14.5 brain or in EBs from mouse ES cells)) (UniProt P63015)
Assay: co-IP

binding: binds
Substance: NFAT4 (from UniProt P97305 1-1075)
